Source: article PMC8787401
Results are given in words; binding and its absence hold for the method and conditions named. In cells and extracts the contact can be indirect. Some results given as binding are weak or reduced against the parent protein; the word gives no strength. Tags and fused reporters may be left off the sequences shown. Each block holds one molecule with its values, some of them ahead of it.

By UniProt entry, the sequences of proteins in these tests, tags left out.
UniProt P16599: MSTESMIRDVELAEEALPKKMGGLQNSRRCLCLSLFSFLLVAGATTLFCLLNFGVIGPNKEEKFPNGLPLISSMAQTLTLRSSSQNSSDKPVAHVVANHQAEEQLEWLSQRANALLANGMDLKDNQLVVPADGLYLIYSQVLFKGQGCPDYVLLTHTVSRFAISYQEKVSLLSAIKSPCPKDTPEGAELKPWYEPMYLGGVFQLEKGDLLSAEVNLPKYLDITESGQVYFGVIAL

Tests used:
[1] = target: T1, TNFR1 (HA-tagged, overexpressed in rat oligodendrocytes) (UniProt P25118); experiment: co-IP; rat oligodendrocytes nucleofected with pcDNA3.3-HA-TNFR1 / plvo3-Flag-Ninj2 or empty vector, lysed after 48 h, anti-HA antibodies, western blot
T1 sequence: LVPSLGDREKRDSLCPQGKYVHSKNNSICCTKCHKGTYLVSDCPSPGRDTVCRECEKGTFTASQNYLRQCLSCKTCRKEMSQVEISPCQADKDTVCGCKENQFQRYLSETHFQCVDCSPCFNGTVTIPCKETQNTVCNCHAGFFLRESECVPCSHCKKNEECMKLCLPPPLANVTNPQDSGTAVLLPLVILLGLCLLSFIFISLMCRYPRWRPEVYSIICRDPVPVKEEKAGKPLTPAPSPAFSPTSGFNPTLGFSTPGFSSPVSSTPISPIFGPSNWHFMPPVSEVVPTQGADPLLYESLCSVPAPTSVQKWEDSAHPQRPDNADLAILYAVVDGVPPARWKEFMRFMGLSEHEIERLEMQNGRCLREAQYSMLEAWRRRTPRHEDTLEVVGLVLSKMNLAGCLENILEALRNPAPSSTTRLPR

[2] = target: T2, TNFR1 (HA-tagged, overexpressed in HEK293T cells) (UniProt P25118); experiment: co-IP; HEK293T cells transfected with plasmids for 48 h, lysed, anti-HA antibodies overnight at 4 °C, Protein A magnetic beads, western blot
T2 sequence: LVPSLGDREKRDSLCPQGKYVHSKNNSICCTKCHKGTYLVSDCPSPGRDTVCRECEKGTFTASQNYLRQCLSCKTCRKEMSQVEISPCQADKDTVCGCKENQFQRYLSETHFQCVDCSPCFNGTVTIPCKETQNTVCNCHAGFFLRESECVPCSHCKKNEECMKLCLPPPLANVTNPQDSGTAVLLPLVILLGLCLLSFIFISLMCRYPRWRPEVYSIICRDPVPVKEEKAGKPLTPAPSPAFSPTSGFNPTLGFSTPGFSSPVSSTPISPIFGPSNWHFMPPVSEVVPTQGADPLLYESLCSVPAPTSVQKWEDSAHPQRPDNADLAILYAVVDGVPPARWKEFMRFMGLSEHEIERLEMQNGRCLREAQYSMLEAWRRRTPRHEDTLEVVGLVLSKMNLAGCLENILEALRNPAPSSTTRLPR

B1: Nerve injury-induced protein 2 (Ninj2), overexpressed in HEK293T cells (protein, UniProt Q9JL89 1-143)
chain: MESDRETIHLQHRHSMRGGNQRIDLNFYATKKSVAESMLDVALFMSNAMRLKSVLQQGPFAEYYTTLVTLIIVSLLLQVVISLLLVFIAILNLNEVENQRHLNKLNNAATILVFITVVINIFITAFGAHHAASMAARTSSNPI
binding [2]: binds

B3: Ninj2 (Flag-tagged, overexpressed in rat oligodendrocytes) (protein, UniProt Q9JL89 1-143)
chain: MESDRETIHLQHRHSMRGGNQRIDLNFYATKKSVAESMLDVALFMSNAMRLKSVLQQGPFAEYYTTLVTLIIVSLLLQVVISLLLVFIAILNLNEVENQRHLNKLNNAATILVFITVVINIFITAFGAHHAASMAARTSSNPI
binding [1]: binds

Second part, the molecule after the results:

binding [1]: binds
Molecule: endogenous TNFα of rat oligodendrocytes (from UniProt P16599 1-235) (ligand)

binding [1]: binds
B2: Ninj2 of rat oligodendrocytes that were transfected with empty or TNFR1 vector only (protein, UniProt Q9JHE8 1-144)
chain: MESDREIIHLQHRHSTPGGNQRHINLNHYATKKSVAESMLDVALFMSNAMRLKSVLEQGPFSQYYTTLLTLISASLLLQVVIGILLVVIARLNLNEVENQWRLNQLNNAATTLVFITVVINIFITAFGAHKTGSVAARTSSNPI
